PubChem BioAssay AID1159584 | Peter MacCallum Cancer Centre – 2016
The deposit covers about 18,000 reagents; below is a part drawn at random. Further read-outs or replicates are left out here. No sequences are given here. The record does not give: the amount of reagent, the time to read-out.

Aim: 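Genes that CDH1-null MCF10A cells selectively depend on to survive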 (primary screen)
System: human MCF10A breast epithelial cells, parental and CDH1-null
Reagent: siRNA against human genes
Detection: 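ATP luminescence (CellTiter-Glo) viability per line relative to mean mock wells over all plates, and the ratio of CDH1-null to parental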
Direction: CDH1-null / parental viability ratio: higher = CDH1-null cells survive relatively better than parental

gene symbol	CDH1-null / parental viability ratio
SULT1C2 (GeneID 6819)	0.93
YBX2 (GeneID 51087)	1.05
SYS1 (GeneID 90196)	1.1
CALM3 (GeneID 808)	0.97
HMGN2 (GeneID 3151)	1.89
BTN3A2 (GeneID 11118)	0.9
IFI27L1 (GeneID 122509)	0.87
MTCL3 (GeneID 387104)	1.11
DLX2 (GeneID 1746)	0.84
BHMT2 (GeneID 23743)	0.85
SLC60A2 (GeneID 91749)	0.77
ADCK1 (GeneID 57143)	1.15
FCF1 (GeneID 51077)	1
TP53I11 (GeneID 9537)	0.82
SRRM2 (GeneID 23524)	1.04
GFRA1 (GeneID 2674)	0.95
TWSG1 (GeneID 57045)	1.07
ABRA (GeneID 137735)	0.91
PPP6C (GeneID 5537)	1.3
AK8 (GeneID 158067)	0.71
MFNG (GeneID 4242)	1.08
MAP3K11 (GeneID 4296)	1.02
RPGR (GeneID 6103)	1.02
TMSB15A (GeneID 11013)	0.81
KHNYN (GeneID 23351)	0.99
IQSEC1 (GeneID 9922)	0.64
RIMS3 (GeneID 9783)	0.8
PEX5L (GeneID 51555)	0.98

3 entries already listed, ordered by “CDH1-null / parental viability ratio”, low to high.
gene symbol	CDH1-null / parental viability ratio
SLC60A2 (GeneID 91749)	0.77
BHMT2 (GeneID 23743)	0.85
ADCK1 (GeneID 57143)	1.15
